# The other results are listed elsewhere or left out. These are further read-outs of the screen, such as a control signal, another cell line or another target. No call is given for them. The list favours compounds with an active or inconclusive main result. Potencies come from curve fits of mixed quality, noted in brackets.
# Assay: qHTS Assay for Lipid Storage Modulators in Drosophila S3 Cells;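 for cell number change: cells counted by Cell Tracker Red CMTPX staining in the red channel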
# Conditions: BODIPY lipid droplet fluorescence, 18-24 h; for cell number change: measured here: cell count max response, cells fed with added oleic acid
# How it was run: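 Laser-scanning cytometry quantifies lipid droplet accumulation (500–530 nm total intensity; droplet/cell object ratio) in oleic acid-fed (400 uM added) Drosophila S3 cells treated with a concentration series. 20 uM Triacsin C defined 100% inhibition.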
# [1] = measured here: cell number channel AC50, cells fed with added oleic acid
# [2] = measured here: lipid fluorescence (Fed channel) AC50, cells fed with added oleic acid
Structure (SMILES),cell number change [%],AC50 [1],AC50 [2]
O=C1CC(N2CCN(c3ccccn3)CC2)C(=O)N1CC(c1ccccc1)c1ccccc1 (stereo not drawn),-36.8,"29.1 µM [falling, single point]",
COc1cccc(S(=O)(=O)N2CCOCC2)c1,,"0.517 µM [rising, full curve, poor fit]",
Cc1nnc(SCC(=O)Nc2ncc3c(n2)CC(c2ccccc2)CC3=O)s1 (stereo not drawn),,,"6.51 µM [falling, partial curve, poor fit]"
COc1ccc(CCNC(=O)c2c(Cl)ccc(Cl)c2OC)cc1OC,8.77,,"29.1 µM [rising, partial curve, poor fit]"
CCC(C)[C@H](NC(=O)C1CC(=O)N(c2ccc3c(c2)OCCO3)C1)C(=O)NC1CCCC1 (stereo partly drawn),16.5,,
COc1cc(OC)cc(-c2nc(=S)n3ccsc3n2)c1,60.2,,"29.1 µM [rising, single point]"
CC(C)c1cc(C(=O)O)n[nH]1,-48.8,"1.03 µM [falling, partial curve, poor fit]","6.51 µM [falling, single point]"
CN(C)c1ccc(C=Nc2ccccc2C(N)=O)cc1,-27.2,,"18.4 µM [falling, partial curve]"
CC(C)(C)NC(=O)c1sccc1C(=O)O,-12.1,,
O=C(Nc1ccccc1Cl)c1ccc2c(=O)n3c(nc2c1)CCC3,16.6,,
COc1cc(C(=O)NCCCN2CCCC2=O)cc(Br)c1OCc1ccccc1,-8.43,,"32.6 µM [rising, single point]"
COC(=O)C1=C(C(=O)c2ccc(C)cc2)C(c2ccc(O)c(OC)c2)n2nnnc2N1 (stereo not drawn),11.5,,
CCC(C)c1ccc(NC(=S)Nc2ccc(OC)cc2C)cc1 (stereo not drawn),-19.9,,"7.31 µM [falling, partial curve]"
CCOC(=O)C[n+]1c(C)sc2ccc(OC)cc21,-9.62,"0.13 µM [rising, partial curve, poor fit]","0.13 µM [rising, full curve, poor fit]"
O=C(/C=C/c1ccc2c(c1)OCCCO2)c1ccccc1O,-44.3,"0.164 µM [falling, full curve, poor fit]","29.1 µM [falling, single point]"
O=C(CCC(=O)N1CCOCC1)Nc1ccc(Cl)c(Cl)c1,34,"35.5 µM [rising, single point]","2 µM [rising, partial curve]"
Cc1c(Cc2ccccc2)c(=O)oc2c(C)c(OCc3nn[nH]n3)ccc12,13.6,,"29.1 µM [falling, single point]"
O=c1c2c3c(sc2nc2n1N=C(c1cccs1)CS2)CCCC3,27.5,,"5.8 µM [falling, full curve, poor fit]"
CCOc1ncccc1C(=O)OCC(=O)N(CC(C)C)c1c(N)n(Cc2ccccc2)c(=O)[nH]c1=O,7.23,,
O=C(OCc1nc2ccsc2c(=O)[nH]1)c1ccccc1,1,,

# Quoted at random: two compounds from above
Structure (SMILES),cell number change [%],AC50 [1],AC50 [2]
O=c1c2c3c(sc2nc2n1N=C(c1cccs1)CS2)CCCC3,27.5,,"5.8 µM [falling, full curve, poor fit]"
COc1cccc(S(=O)(=O)N2CCOCC2)c1,,"0.517 µM [rising, full curve, poor fit]",

# (next part)

Structure (SMILES),cell number change [%],AC50 [1],AC50 [2]
O=C(NCc1cccnc1)c1ccccc1NS(=O)(=O)c1ccc(F)cc1,20.9,"4.11 µM [rising, partial curve, poor fit]","6.51 µM [rising, single point]"
CC(C)n1nnnc1SCC(=O)N1N=C(c2cccs2)CC1c1cccs1 (stereo not drawn),-8.97,,
CCNC(=O)CC1C(=O)N(c2cccc(C)c2)C(=O)N1CCC(C)C (stereo not drawn),18,,
CCOc1ccc(S(=O)(=O)N2CCCCC2)cc1NC(=O)c1c(CC)noc1C,6.78,"6.51 µM [rising, single point]",
COc1cc(S(=O)(=O)N2CC(=O)Nc3ccccc32)ccc1NC(C)=O,7.92,,
CCOc1ncccc1C(=O)OCC(=O)NC(=O)c1ccccc1,9.21,,"6.51 µM [falling, single point]"
COCCCN(C(C)=O)c1nc(-c2ccccc2)cs1,,"3.66 µM [rising, single point]","0.82 µM [rising, single point]"
COc1ccc(CN2CCNC(=O)C2CC(=O)NCCC2=CCCCC2)c(F)c1 (stereo not drawn),,,"29.1 µM [falling, partial curve, poor fit]"
C/C(=C\c1ccc(N)cc1)c1nc2ccccc2[nH]1,-21.2,,"5.8 µM [falling, partial curve, poor fit]"
COc1ccc(CNC(=O)CSc2nc3ccccc3n2C(C)=O)cc1,10.9,"1.64 µM [rising, partial curve, poor fit]","29.1 µM [rising, single point]"
CCOc1ncccc1C(=O)Nc1ccc(S(=O)(=O)Nc2nccs2)cc1,10.2,,"5.17 µM [rising, partial curve, poor fit]"
COc1ccc(NC(=O)c2oc3ccccc3c2NC(=O)c2ccco2)cc1,95.2,"1.84 µM [rising, full curve]","16.4 µM [rising, partial curve]"
C[C@H](NC(=O)c1nc[nH]c1C(=O)N[C@@H](Cc1ccccc1)C(=O)OCc1ccccc1)C(=O)OCc1ccccc1,151,"20.6 µM [rising, single point]",
CCCCn1c(N)c(N(CC)C(=O)c2ccccc2C)c(=O)[nH]c1=O,17,,
CCCCN(C)S(=O)(=O)c1ccc(C(=O)N(CCN(C)C)c2nc3ccc(C)cc3s2)cc1,0.726,,
Cc1nc2cccc(C(=O)NCc3ccccc3)c2o1,9.84,,"23.1 µM [rising, single point]"
CCc1nnc(NC(=O)Nc2ccccc2OC)s1,39.7,"23.1 µM [rising, single point]","0.651 µM [rising, single point]"
Cn1c(-c2csc(-c3cccc(C(F)(F)F)c3)n2)n[nH]c1=S,-12.4,"6.51 µM [falling, single point]","6.51 µM [falling, single point]"
O=c1c([N+](=O)[O-])c(NCCN2CCCCCC2)c2ccccc2n1-c1ccccc1,83.3,"29.1 µM [rising, single point]",
